Data as given in PubChem BioAssay AID1224830 (NIAID, 2016).

- Screen: 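Genes whose knock-down alters the TNF-alpha reporter response to LPS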 (primary screen)
- Cells: human THP-1 monocytic leukaemia cells, TNF dual-luciferase reporter clone, PMA-differentiated to macrophage-like cells
- Knock-down reagent: siRNA pool against human genes, 50 nM
- Time to read-out: LPS for 4 h, given about 3 days after siRNA transfection
- Treatment: bacterial LPS (TLR4 ligand), 10 ng/ml
- Measurement: 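TNF firefly reporter luminescence divided by renilla, normalised to the plate median, then turned into a robust z-score for each replicate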
- Direction: TNF reporter robust z-score: higher = stronger TNF reporter response to LPS
- Rule for the call: 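Each well counts as active if its z-score is over 2.8 or under -1.5; controls are left without a call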
This is an unselected part of about 18,000 deposited reagents. About 2,900 of all reagents (16%) were called active. 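Calls are made per well; low scores hint the gene aids the LPS response, high scores that it dampens it.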 Repeated entries: four replicate wells of each siRNA pool.

no.	target	TNF reporter robust z-score	call
1	CETN2	-1.27	inactive
2	CETN2	-0.93	inactive
3	CETN2	0.13	inactive
4	CETN2	-0.87	inactive
5	BCL6B	-0.46	inactive
6	BCL6B	1.95	inactive
7	BCL6B	1.87	inactive
8	BCL6B	1.57	inactive
9	LY6G5C	2.27	inactive
10	LY6G5C	2.59	inactive
11	LY6G5C	1.37	inactive
12	LY6G5C	1.95	inactive
13	CD200R1L	-0.52	inactive
14	CD200R1L	0.41	inactive
15	CD200R1L	-0.05	inactive
16	CD200R1L	-0.19	inactive
17	NKPD1	1.75	inactive
18	NKPD1	2.82	active
19	NKPD1	1.14	inactive
20	NKPD1	2.58	inactive
21	ZDHHC6	1.18	inactive
22	ZDHHC6	0.27	inactive
23	ZDHHC6	0.82	inactive
24	ZDHHC6	1.51	inactive
25	GCC1	0.06	inactive
26	GCC1	1.62	inactive
27	GCC1	0.48	inactive
28	GCC1	0.89	inactive
29	DIS3L2	0.08	inactive
30	DIS3L2	0.27	inactive
31	DIS3L2	0.48	inactive
32	DIS3L2	0.71	inactive
33	CD6	-0.61	inactive
34	CD6	-0.43	inactive
35	CD6	-0.24	inactive
36	SLC35A1	0.83	inactive
37	SLC35A1	0.65	inactive
38	SLC35A1	1.55	inactive
39	SLC35A1	-0.16	inactive
40	ERAP2	-0.32	inactive
41	ERAP2	0.24	inactive
42	ERAP2	0	inactive
43	ERAP2	0.54	inactive
44	SYDE1	-0.63	inactive
45	SYDE1	-0.49	inactive
46	SYDE1	-1.06	inactive
47	SYDE1	-0.07	inactive
48	DNAAF4	1.45	inactive
49	DNAAF4	0	inactive
50	DNAAF4	-0.18	inactive
51	DNAAF4	0.55	inactive
52	TMEM128	-1.67	active
53	TMEM128	-0.25	inactive
54	TMEM128	-1.1	inactive
55	TMEM128	0.17	inactive
56	FOXF2	-1.28	inactive
57	FOXF2	-0.35	inactive
58	FOXF2	0.26	inactive
59	FOXF2	-0.55	inactive

Reagents listed above marked active:
target	TNF reporter robust z-score	call
NKPD1	2.82	active
TMEM128	-1.67	active

The results go on:
no.	target	TNF reporter robust z-score	call
60	IL4I1	-1.48	inactive
61	IL4I1	-1.96	active
62	IL4I1	-1.75	active
63	IL4I1	-1.3	inactive
64	PCSK1	-0.82	inactive
65	PCSK1	-0.12	inactive
66	PCSK1	-0.06	inactive
67	PCSK1	1.31	inactive
68	UNC5D	-0.67	inactive
69	UNC5D	0.44	inactive
70	UNC5D	-0.68	inactive
71	UNC5D	-0.88	inactive
72	CSMD1	0.17	inactive
73	CSMD1	2.36	inactive
74	CSMD1	2.29	inactive
75	CSMD1	2.48	inactive
76	RPS11	2.44	inactive
77	RPS11	2.85	active
78	RPS11	1.34	inactive
79	RPS11	3	active
80	YEATS2	-0.61	inactive
81	YEATS2	0.4	inactive
82	YEATS2	-0.23	inactive
83	YEATS2	-0.17	inactive
84	POMT2	-0.92	inactive
85	POMT2	-0.48	inactive
86	POMT2	-0.28	inactive
87	POMT2	-0.13	inactive
88	ATP13A2	0.27	inactive
89	ATP13A2	0.52	inactive
90	ATP13A2	-0.32	inactive
91	ATP13A2	-0.06	inactive
92	ALDH1L1	-0.22	inactive
93	ALDH1L1	-1.26	inactive
94	ALDH1L1	-1.11	inactive
95	ALDH1L1	-0.19	inactive
96	KIR2DL4	-0.27	inactive
97	KIR2DL4	-0.01	inactive
98	KIR2DL4	-0.71	inactive
99	KIR2DL4	0.75	inactive
100	TUBGCP2	-0.82	inactive
101	TUBGCP2	-0.08	inactive
102	TUBGCP2	-0.53	inactive
103	TUBGCP2	0.41	inactive
104	TAS2R8	1.61	inactive
105	TAS2R8	1.06	inactive
106	TAS2R8	1.03	inactive
107	TAS2R8	0.57	inactive
108	HSPH1	-2.1	active
109	HSPH1	-1.68	active
110	HSPH1	-1.39	inactive
111	HSPH1	-1.83	active
